According to publication PMC12345401, “The mRNA Translation Inhibitor Vioprolide A Prevents Inflammatory Pain‐Like Behaviour With Limited Action on Already Established Pain‐Like Behaviour in Mice” (European Journal of Pain (London, England), 2025):
Entries after “also recorded” stand apart in the source; their conditions may differ.

Tested on: NOP14
Assay: Western blot of NOP14 in dorsal root ganglia after treatment
Type: in vivo, mouse
Conditions: 0.3 mg/kg s.c.; with or without intraplantar zymosan 16 h later; DRGs excised after a further 24 h

C/C=C1/NC(=O)[C@@H]2CSC(=N2)[C@@H]2C[C@@H](C)N2C(=O)[C@@H](CC(C)C)NC(=O)[C@H](C)NC(=O)[C@@H](O)COC(=O)[C@H](C(C)C)N(C)C(=O)[C@H]([C@@H](C)O)NC(=O)[C@@H]2CCCCN2C1=O [vioprolide A]
NOP14 protein expression in L4-L5 DRGs: did not detect altered expression of NOP14; also recorded: no change in NOP14 protein expression
